Reference: patent publication US20210196724A1, “BIARYL COMPOSITIONS AND METHODS FOR MODULATING A KINASE CASCADE” (Athenex, Inc., priority 2016, published 2021)
pIC50: −log10 of the molar value.

Columns and labels:
[1] = tested on: HeLa cells; experiment: CellTiter-Glo cell viability, HeLa; assay type: cell-based; conditions: 72 h, read-out: Absolute IC50
Experimental: (§1) The cell viability of 50 cancer cell lines was studied after treatment with Compound 121. Inhibition concentration values at 50% (IC50) were determined using CellTiter-Glo luminescent cell viability assay after incubation with different compound concentrations. GI50 values were determined according to the examples described above. Each cell line was treated with Compound 121, a standard chemotherapy drug as a reference control, and culture medium as a vehicle control.
(§2) All cells were cultured in media supplemented with 10-15% FBS at 37° C. in the presence of 5% CO2 and at 95% humidity. The culture medium was purchased from GIBCO or Sigma, USA. Cisplatin was chosen as the reference control and purchased from Hospira Australia Pty Ltd. The cell lines studied are presented in Table 5.
(§3) Cells were harvested during a logarithmic growth period and cell number count was determined using Count-star. Cell concentrations were adjusted to 4.44×10^4 cells/mL with respective culture medium. […]
(§4) 10 μL of culture medium was added to each well of plate A for TO reading. […]
(§5) IC50 and GI50 values for each of the 50 cell lines are presented in Table 6 and were calculated based on the dose-response curves depicted in FIGS. 1-50. […] The formula for calculating survival rate was calculated by the formula: […]

[2] = tested on: MDA-MB-231 cells; experiment: CellTiter-Glo cell viability, MDA-MB-231; assay type: cell-based; conditions: 72 h, read-out: Absolute IC50
Experimental: as §1, §2, §3, §4, §5

With `N.N.[Cl][Pt][Cl]` [Cisplatin, reference compound] the pIC50 [1] was 6.48 and the pIC50 [2] was 4.63.
